Reference: paper doi:10.1101/2025.09.29.679228
Results are given in words; binding and its absence hold for the method and conditions named. Binding calls can cover weak binding; strength is not graded here.

Target: EphA2 ICRΔSAM, kinase-dead (D739N) (human)
Test: MST

binding: binds
B1: SHIP2 SAM domain (isolated) (domain or fragment, UniProt O15357 1200-1258)
chain: GMSAWLRAIGLERYEEGLVHNGWDDLEFLSDITEEDLEEAGVQDPAHKRLLLDTLQLSK
